Results from article PMC10782615.
These are yes or no findings as the source states them, for the method shown. In cells and extracts the contact can be indirect. These calls come from enrichment with a bait or labelling near it, and not all partners need be listed.

The chains behind the UniProt entries cited, without tags or fusion partners.
UniProt Q99623: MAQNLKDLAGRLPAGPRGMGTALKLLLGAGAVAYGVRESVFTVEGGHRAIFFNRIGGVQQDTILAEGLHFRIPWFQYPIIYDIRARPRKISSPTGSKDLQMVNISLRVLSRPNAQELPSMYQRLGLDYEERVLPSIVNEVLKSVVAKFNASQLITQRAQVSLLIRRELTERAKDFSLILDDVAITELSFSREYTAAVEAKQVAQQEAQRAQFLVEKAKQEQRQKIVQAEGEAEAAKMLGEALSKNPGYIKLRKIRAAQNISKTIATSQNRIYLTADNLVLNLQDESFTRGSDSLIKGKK
UniProt P46934: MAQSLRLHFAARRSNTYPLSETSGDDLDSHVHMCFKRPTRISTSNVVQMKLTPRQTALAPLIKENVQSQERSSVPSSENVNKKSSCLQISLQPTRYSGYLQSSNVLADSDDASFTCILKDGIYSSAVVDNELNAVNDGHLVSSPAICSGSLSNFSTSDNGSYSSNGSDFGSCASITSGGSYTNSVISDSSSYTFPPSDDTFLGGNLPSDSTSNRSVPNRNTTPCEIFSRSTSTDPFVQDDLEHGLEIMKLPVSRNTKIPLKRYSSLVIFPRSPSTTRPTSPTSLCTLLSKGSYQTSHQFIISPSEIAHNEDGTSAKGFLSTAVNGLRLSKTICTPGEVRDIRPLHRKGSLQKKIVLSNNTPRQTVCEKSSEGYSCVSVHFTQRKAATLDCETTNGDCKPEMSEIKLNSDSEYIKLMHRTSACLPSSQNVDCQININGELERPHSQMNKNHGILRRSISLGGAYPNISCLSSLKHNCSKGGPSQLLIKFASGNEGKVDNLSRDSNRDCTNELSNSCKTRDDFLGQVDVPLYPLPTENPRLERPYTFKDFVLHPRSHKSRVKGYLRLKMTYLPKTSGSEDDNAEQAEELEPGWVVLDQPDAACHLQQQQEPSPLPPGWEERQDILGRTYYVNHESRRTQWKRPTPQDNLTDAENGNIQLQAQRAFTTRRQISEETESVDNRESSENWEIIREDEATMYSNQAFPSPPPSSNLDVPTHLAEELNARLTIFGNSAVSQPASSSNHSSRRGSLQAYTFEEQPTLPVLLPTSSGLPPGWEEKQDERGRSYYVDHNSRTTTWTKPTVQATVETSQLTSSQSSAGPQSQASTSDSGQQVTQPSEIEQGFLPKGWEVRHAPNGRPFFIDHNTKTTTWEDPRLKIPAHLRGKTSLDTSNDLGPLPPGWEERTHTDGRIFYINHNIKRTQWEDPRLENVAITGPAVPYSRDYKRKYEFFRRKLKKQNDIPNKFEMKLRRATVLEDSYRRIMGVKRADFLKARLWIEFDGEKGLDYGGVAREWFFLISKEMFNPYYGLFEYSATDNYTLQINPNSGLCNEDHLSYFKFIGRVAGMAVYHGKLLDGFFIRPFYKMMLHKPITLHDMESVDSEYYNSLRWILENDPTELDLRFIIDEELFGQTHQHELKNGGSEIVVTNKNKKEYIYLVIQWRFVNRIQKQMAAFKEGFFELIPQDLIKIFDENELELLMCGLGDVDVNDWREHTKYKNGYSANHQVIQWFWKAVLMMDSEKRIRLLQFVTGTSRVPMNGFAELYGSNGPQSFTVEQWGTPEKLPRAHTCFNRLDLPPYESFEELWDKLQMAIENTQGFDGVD

B1: Src homology 2-containing inositol 5-phosphatase 2 (SHIP2), endogenous (protein, UniProt O15357 1-1258)
chain: MASACGAPGPGGALGSQAPSWYHRDLSRAAAEELLARAGRDGSFLVRDSESVAGAFALCVLYQKHVHTYRILPDGEDFLAVQTSQGVPVRRFQTLGELIGLYAQPNQGLVCALLLPVEGEREPDPPDDRDASDGEDEKPPLPPRSGSTSISAPTGPSSPLPAPETPTAPAAESAPNGLSTVSHDYLKGSYGLDLEAVRGGASHLPHLTRTLATSCRRLHSEVDKVLSGLEILSKVFDQQSSPMVTRLLQQQNLPQTGEQELESLVLKLSVLKDFLSGIQKKALKALQDMSSTAPPAPQPSTRKAKTIPVQAFEVKLDVTLGDLTKIGKSQKFTLSVDVEGGRLVLLRRQRDSQEDWTTFTHDRIRQLIKSQRVQNKLGVVFEKEKDRTQRKDFIFVSARKREAFCQLLQLMKNKHSKQDEPDMISVFIGTWNMGSVPPPKNVTSWFTSKGLGKTLDEVTVTIPHDIYVFGTQENSVGDREWLDLLRGGLKELTDLDYRPIAMQSLWNIKVAVLVKPEHENRISHVSTSSVKTGIANTLGNKGAVGVSFMFNGTSFGFVNCHLTSGNEKTARRNQNYLDILRLLSLGDRQLNAFDISLRFTHLFWFGDLNYRLDMDIQEILNYISRKEFEPLLRVDQLNLEREKHKVFLRFSEEEISFPPTYRYERGSRDTYAWHKQKPTGVRTNVPSWCDRILWKSYPETHIICNSYGCTDDIVTSDHSPVFGTFEVGVTSQFISKKGLSKTSDQAYIEFESIEAIVKTASRTKFFIEFYSTCLEEYKKSFENDAQSSDNINFLKVQWSSRQLPTLKPILADIEYLQDQHLLLTVKSMDGYESYGECVVALKSMIGSTAQQFLTFLSHRGEETGNIRGSMKVRVPTERLGTRERLYEWISIDKDEAGAKSKAPSVSRGSQEPRSGSRKPAFTEASCPLSRLFEEPEKPPPTGRPPAPPRAAPREEPLTPRLKPEGAPEPEGVAAPPPKNSFNNPAYYVLEGVPHQLLPPEPPSPARAPVPSATKNKVAITVPAPQLGHHRHPRVGEGSSSDEESGGTLPPPDFPPPPLPDSAIFLPPSLDPLPGPVVRGRGGAEARGPPPPKAHPRPPLPPGPSPASTFLGEVASGDDRSCSVLQMAKTLSEVDYAPAGPARSALLPGPLELQPPRGLPSDYGRPLSFPPPRIRESIQEDLAEEAPCLQGGRASGLGEAGMSAWLRAIGLERYEEGLVHNGWDDLEFLSDITEEDLEEAGVQDPAHKRLLLDTLQLSK

Assays:
[1] = target: T1, Src homology 2-containing inositol 5-phosphatase 2 (SHIP2), endogenous (human (endogenous in HGC-27 and MKN-28)) (UniProt O15357); assay: affinity purification with mass spectrometry; immunoprecipitation of SHIP2 from GC cells followed by mass spectrometry
T1 sequence: B1 chain

[2] = target: Prohibitin 2 (PHB2), endogenous (human (endogenous in HGC-27 and MKN-28)) (UniProt Q99623); assay: affinity purification with mass spectrometry; immunoprecipitation of PHB2 from HGC-27 cells followed by mass spectrometry (IP-MS)

Row | Molecule | binding [1] | binding [2]
1 | NEDD4, endogenous (from UniProt P46934 1-1319) (enzyme) | binds | 
2 | B1 |  | binds
